# Primary screen of a compound library

The values are deposited in ChEMBL (CHEMBL3988442, “University of Dundee, Small-Polar-MMV Screening Library” (2021)).

Mtb heat-shock: 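Assay on Mycobacterium tuberculosis, filed only as a heat shock assay from Cornell; the read-out is not stated. The concentration is filed as 10 mM, unlikely as a test dose, so the dose is not known. Direction is inferred from retests: higher values go with stronger inhibition. Size under these conditions: about 69,000 compounds, about 930 of them at 50% or above in at least one test.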
Mtb growth Cornell: 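Whole-cell assay for inhibitors of Mycobacterium tuberculosis growth, labelled Cornell in the record; the read-out is not stated. The concentration is filed as 10 mM, unlikely as a test dose, so the dose is not known. The record gives no direction; compounds strong in two other growth screens of this library score well above the rest, so higher reads as stronger inhibition. Size under these conditions: about 53,000 compounds, about 900 of them at 50% or above in at least one test.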

Results are given as percent effect. How 0% and 100% were set is not recorded. Most values in the screen are low, and negative values occur. The compounds are a random part of those screened.

[H][C@@]12CCN(C(=O)c3cccnc3OC)C[C@@]1([H])O[C@@H](c1ccncn1)C2 read Mtb heat-shock: -12.85%; Mtb growth Cornell: 17.53%. With CNC(=O)CCCNc1cc(C)nc2cc(C)nn12 the screen gave Mtb heat-shock: -5.305%; Mtb growth Cornell: -18.95%. With O=C(NCC(Cc1cccc(F)c1)n1cccc1)C1CC1 (stereo not shown) the screen gave Mtb heat-shock: 39.29%; Mtb growth Cornell: 32.39%. For Cc1cc(N2CCN(C(=O)c3cc(Cl)c[nH]3)CC2)nc(C)n1 the result was Mtb heat-shock: -19.77%; Mtb growth Cornell: 4.614%. Result for Cc1cccc(N2CCN(C(=O)Cc3ccccc3O)C(C)C2)n1 (stereo not shown) was Mtb heat-shock: 4.248%; Mtb growth Cornell: 43.5%.

With CS(=O)(=O)N1CCc2c(cccc2NC(=O)Nc2ccccn2)C1 the screen gave Mtb heat-shock: 8.811%; Mtb growth Cornell: -18.01%. Result for CNS(=O)(=O)CC(=O)N1CCCc2cc(C(C)C)ccc21 was Mtb heat-shock: -6.32%; Mtb growth Cornell: 23.7%. Cc1c(C)n(CC(O)CN2CCN(CCO)CC2)c2c(Cl)cccc12.Cl (stereo not shown) gave Mtb heat-shock: -3.294%; Mtb growth Cornell: 12.2%. CS(=O)(=O)c1cc(S(N)(=O)=O)ccc1NCC1CCCO1 (stereo not shown) gave Mtb heat-shock: -27.3%; Mtb growth Cornell: -29.33%. For CCn1c(C)nnc1CN(C)C1CCN(Cc2ccccn2)C1 (stereo not shown) the result was Mtb heat-shock: 15.95%.

With Cc1ccc(SCCN(C)C(=O)c2cn([C@H]3CC[C@@H](N)CC3)nn2)cc1 the screen gave Mtb heat-shock: 34.5%; Mtb growth Cornell: -18.98%. With Cc1ccc(N2CCC3(CCN(Cc4nccs4)CC3)CC2)nn1 the screen gave Mtb heat-shock: -15.35%; Mtb growth Cornell: 3.009%. Cc1cnc(C(=O)NCc2ccnc(N(C)C)c2)cn1 read Mtb heat-shock: -1.585%. Result for CCOC(=O)c1ccc(S(=O)(=O)NCC(CC)N2CCCC2)cc1 (stereo not shown) was Mtb heat-shock: -16.48%; Mtb growth Cornell: 43.12%. For CC(C)c1nccn1CC(=O)Nc1ccnn1C(C)C(C)C (stereo not shown) the result was Mtb heat-shock: 6.645%; Mtb growth Cornell: 25.31%.

Result for Cc1ccc2c(c1)OC(C)CN2C(=O)CCc1cccnc1 (stereo not shown) was Mtb heat-shock: 5.882%; Mtb growth Cornell: 26.42%. Result for COc1cccc2c1N(Cc1nc3c(cnn3C)c(=O)[nH]1)CCC2 was Mtb heat-shock: 36.92%; Mtb growth Cornell: -8.817%. Result for COc1cc(N2CCc3ncnc(-c4ccncc4)c3CC2)ncn1.O=C(O)C(F)(F)F was Mtb heat-shock: -28.23%; Mtb growth Cornell: -33.81%. Result for CC(CO)(NC(=O)NCc1ccc(Br)s1)C1CC1 (stereo not shown) was Mtb heat-shock: -4.847%; Mtb growth Cornell: 16.76%. For Cc1cccc(NC(=O)CCC(=O)NCC(=O)c2ccccc2F)c1 the result was Mtb heat-shock: 0.2927%; Mtb growth Cornell: 14%.

With CCC(NC(=O)c1ccco1)c1ccccc1OCC(=O)N1CCCC1 (stereo not shown) the screen gave Mtb heat-shock: 33.31%; Mtb growth Cornell: 4.237%. Cc1cccc(OCCC(=O)N(C)CCNS(C)(=O)=O)c1C gave Mtb heat-shock: -4.203%; Mtb growth Cornell: 4.187%. CCC(O)CN1CCN(C(=O)c2ccn(-c3ccccc3)n2)CC1 (stereo not shown) gave Mtb heat-shock: -7.743%. Result for Cc1ccc(CN2Cc3c(C(=O)N(C)C)nn(C)c3C2)s1.O=C(O)C(F)(F)F was Mtb heat-shock: -2.77%; Mtb growth Cornell: 30.41%.

The last 3 entries again:

- Cc1cccc(OCCC(=O)N(C)CCNS(C)(=O)=O)c1C : Mtb heat-shock: -4.203%; Mtb growth Cornell: 4.187%
- CCC(O)CN1CCN(C(=O)c2ccn(-c3ccccc3)n2)CC1 (stereo not shown) : Mtb heat-shock: -7.743%
- Cc1ccc(CN2Cc3c(C(=O)N(C)C)nn(C)c3C2)s1.O=C(O)C(F)(F)F : Mtb heat-shock: -2.77%; Mtb growth Cornell: 30.41%